EC50 data for 1 compound are collected here from patent US6410587B1, “Compounds and therapies for the prevention of vascular and non-vascular pathologies” (NeoRx Corporation, priority 1997, dated 2002).

pEC50: −log10 of the molar value.

In the test the test system is TGF-beta. Put plainly: TGF-beta production by human VSMCs in culture. Type of test: cell-based. To be noted: VSMC, read-out: ED50 for stimulating TGF-beta production.

On to `CC/C(=C(\c1ccccc1)c1ccc(OCCN(C)C)cc1)c1ccccc1` [TMX, trans-2-[4-(1,2-diphenyl-1-butenyl)phenoxy]-N,N-dimethylethylamine], for which the pEC50 is 7.30.
